Laboratory results published in article PMC6915709.
No constants are given. Whether binding was seen depends on the method and setting. In cells and extracts the contact can be indirect. Some binding calls cover weakened binding; strength is not graded here.

Chains of the proteins cited; added tags and fusions are not shown. Lines headed by an entry give the natural chain unless they say otherwise; changes in a name come on top. A line that says so, or that is headed by a name, gives the form on record, which may keep a tag or linker. Residues count along the entry.
UniProt Q02789: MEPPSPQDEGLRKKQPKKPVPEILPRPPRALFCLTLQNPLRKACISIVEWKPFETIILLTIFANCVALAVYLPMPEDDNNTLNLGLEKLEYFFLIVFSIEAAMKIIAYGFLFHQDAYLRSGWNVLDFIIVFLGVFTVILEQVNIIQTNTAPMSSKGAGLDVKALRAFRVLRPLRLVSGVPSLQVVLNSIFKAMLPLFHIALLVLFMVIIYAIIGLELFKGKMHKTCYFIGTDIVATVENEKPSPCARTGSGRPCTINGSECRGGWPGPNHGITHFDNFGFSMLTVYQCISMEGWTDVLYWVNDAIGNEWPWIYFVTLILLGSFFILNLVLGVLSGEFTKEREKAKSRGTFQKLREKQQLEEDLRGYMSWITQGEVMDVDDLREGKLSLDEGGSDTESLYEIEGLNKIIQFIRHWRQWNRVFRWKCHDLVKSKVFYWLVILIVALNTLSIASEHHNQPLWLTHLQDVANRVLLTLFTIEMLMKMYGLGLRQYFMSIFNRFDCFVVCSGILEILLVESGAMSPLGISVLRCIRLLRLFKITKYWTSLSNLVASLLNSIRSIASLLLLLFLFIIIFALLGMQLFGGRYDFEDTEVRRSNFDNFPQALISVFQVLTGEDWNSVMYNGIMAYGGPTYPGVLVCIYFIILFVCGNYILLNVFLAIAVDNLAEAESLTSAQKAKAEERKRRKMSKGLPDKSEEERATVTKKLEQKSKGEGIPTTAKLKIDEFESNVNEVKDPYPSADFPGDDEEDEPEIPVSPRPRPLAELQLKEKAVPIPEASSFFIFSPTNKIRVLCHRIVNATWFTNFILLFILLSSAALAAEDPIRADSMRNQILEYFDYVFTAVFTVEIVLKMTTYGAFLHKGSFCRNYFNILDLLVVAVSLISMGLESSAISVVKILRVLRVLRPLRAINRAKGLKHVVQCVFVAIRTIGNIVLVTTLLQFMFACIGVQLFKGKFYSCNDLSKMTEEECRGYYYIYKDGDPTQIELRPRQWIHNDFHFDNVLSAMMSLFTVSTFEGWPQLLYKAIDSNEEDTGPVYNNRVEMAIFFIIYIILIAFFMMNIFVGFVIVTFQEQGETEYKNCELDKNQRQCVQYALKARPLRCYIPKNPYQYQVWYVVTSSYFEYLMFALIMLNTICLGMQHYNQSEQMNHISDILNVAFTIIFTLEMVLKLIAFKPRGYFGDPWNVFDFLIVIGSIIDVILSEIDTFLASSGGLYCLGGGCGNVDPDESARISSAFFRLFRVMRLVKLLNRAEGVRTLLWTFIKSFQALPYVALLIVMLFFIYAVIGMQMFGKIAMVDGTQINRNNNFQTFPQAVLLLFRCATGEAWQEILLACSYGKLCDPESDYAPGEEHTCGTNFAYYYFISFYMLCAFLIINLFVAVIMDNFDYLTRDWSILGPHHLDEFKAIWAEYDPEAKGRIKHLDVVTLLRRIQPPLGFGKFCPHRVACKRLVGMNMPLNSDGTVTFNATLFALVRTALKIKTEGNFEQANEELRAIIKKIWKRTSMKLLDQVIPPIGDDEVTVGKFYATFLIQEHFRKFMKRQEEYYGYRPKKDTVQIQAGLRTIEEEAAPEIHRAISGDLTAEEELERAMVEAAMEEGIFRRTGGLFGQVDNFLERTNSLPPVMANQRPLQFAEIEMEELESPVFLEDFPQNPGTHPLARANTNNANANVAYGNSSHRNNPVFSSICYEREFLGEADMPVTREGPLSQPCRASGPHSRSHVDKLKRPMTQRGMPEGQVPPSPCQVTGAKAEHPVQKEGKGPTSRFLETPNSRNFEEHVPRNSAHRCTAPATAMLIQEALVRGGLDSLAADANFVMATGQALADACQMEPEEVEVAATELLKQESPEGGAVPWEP
UniProt P70302, residues 23-685: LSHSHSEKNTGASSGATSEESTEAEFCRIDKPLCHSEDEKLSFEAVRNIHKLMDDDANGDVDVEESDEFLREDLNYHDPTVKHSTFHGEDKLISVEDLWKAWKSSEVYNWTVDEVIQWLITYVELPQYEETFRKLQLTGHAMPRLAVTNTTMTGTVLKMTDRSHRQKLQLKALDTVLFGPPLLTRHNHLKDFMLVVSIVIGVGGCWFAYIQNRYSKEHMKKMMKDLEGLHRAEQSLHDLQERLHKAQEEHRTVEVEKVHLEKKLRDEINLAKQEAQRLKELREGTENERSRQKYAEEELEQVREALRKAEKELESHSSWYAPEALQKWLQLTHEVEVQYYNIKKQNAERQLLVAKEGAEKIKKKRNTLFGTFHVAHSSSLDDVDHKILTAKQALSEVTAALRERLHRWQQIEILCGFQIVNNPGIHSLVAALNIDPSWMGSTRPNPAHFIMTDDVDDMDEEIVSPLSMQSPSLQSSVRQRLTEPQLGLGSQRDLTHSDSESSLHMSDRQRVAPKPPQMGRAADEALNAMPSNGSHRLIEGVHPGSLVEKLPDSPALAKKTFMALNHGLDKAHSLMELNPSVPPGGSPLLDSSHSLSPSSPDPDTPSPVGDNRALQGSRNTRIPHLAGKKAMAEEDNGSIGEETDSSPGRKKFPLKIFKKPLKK
CFP-R429C (human STIM1 mutant R429C, CFP-tagged) (Q13586-1, form named): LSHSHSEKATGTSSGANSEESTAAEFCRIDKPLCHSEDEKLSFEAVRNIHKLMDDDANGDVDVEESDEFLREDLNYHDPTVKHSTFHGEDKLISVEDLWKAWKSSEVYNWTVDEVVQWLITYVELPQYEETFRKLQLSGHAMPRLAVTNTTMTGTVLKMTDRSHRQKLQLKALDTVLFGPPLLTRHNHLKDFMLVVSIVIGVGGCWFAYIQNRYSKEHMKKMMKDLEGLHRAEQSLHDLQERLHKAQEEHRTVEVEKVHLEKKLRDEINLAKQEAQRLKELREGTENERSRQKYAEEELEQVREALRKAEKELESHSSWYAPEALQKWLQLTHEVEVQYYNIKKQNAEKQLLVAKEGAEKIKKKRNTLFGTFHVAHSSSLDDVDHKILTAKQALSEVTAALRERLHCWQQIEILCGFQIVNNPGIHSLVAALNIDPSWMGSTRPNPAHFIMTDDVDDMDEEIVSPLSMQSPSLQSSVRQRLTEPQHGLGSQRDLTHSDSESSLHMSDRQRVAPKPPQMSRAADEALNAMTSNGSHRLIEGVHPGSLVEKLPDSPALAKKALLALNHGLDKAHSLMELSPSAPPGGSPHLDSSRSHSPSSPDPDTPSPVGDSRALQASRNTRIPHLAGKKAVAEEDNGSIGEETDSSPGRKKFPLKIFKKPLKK

Assays:
[1] = target: dihydropyridine receptor (DHPR, voltage-gated Ca2+ channel Cav1.1) (mouse (endogenous in mouse primary skeletal myotubes)) (UniProt Q02789); assay: co-IP; lysate of transfected mouse primary skeletal myotubes (80 or 100 µg of total protein); precipitated with anti-STIM1 or anti-DHPR antibody; blotted with anti-DHPR, anti-STIM1 or anti-GFP (for CFP-R429C)
[2] = target: endogenous STIM1 (stromal interaction molecule 1) of mouse primary skeletal myotubes (mouse (endogenous in mouse primary skeletal myotubes)) (UniProt P70302); assay: as above

binding [1]: no binding
binding [2]: binds
Substance: CFP-R429C (human STIM1 mutant R429C, CFP-tagged) (from UniProt Q13586-1 23-685)
